Binding data for 1 substance are collected here from article PMC13155314.

By UniProt entry, the sequences of proteins in these tests, tags left out. Where a name states a change or a piece, a line headed by the entry shows the natural chain unless it says otherwise.
UniProt Q9JHF5: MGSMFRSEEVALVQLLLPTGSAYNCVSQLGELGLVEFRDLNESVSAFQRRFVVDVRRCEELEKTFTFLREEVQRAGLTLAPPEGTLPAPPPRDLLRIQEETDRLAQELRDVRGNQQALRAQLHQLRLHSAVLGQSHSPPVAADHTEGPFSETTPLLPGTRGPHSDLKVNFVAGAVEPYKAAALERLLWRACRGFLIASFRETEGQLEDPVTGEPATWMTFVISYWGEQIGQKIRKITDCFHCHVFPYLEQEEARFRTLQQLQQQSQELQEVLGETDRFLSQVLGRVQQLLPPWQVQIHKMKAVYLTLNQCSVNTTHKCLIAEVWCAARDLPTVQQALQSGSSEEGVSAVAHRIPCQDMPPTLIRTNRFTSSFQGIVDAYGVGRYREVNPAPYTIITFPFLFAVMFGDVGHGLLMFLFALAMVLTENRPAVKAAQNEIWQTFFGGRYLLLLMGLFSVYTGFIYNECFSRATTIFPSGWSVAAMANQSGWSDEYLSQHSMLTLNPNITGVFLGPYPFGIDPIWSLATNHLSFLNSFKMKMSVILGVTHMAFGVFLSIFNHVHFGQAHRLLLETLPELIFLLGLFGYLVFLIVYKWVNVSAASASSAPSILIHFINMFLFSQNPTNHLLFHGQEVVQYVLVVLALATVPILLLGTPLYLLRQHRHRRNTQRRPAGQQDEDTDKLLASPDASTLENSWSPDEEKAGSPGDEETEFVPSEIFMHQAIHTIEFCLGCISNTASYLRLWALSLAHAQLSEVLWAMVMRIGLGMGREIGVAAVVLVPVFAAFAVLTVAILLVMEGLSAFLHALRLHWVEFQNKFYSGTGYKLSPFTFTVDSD

The assay addresses T1, 3X-FLAG-RAB5c (mouse) (UniProt P35278).
T1 sequence: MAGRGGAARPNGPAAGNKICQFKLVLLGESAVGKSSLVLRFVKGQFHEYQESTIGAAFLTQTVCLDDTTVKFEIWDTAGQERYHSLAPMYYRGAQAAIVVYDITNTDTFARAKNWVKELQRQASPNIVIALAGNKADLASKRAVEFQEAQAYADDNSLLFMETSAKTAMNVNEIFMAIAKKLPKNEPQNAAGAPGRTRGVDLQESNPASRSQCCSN
The experiment in a line: co-IP; anti-FLAG M2 magnetic beads, 3X-FLAG-RAB5c as bait; RAW264.7 cells coexpressing ATP6V0a3-EGFP, IFN-γ (200 U/ml) 16 h; lysed in Pierce IP Lysis Buffer; 4°C, 50 min; immunoblot.

These are yes or no findings as the source states them, for the method shown. Binding seen in cells or lysates may run through a third protein. Tags and fused reporters may be left off the sequences shown.

On to ATP6V0a3-EGFP (from UniProt Q9JHF5), for which the binding result was “no binding”.
